# Data published in the supplement of paper PMC4604168 (melanoma cell lines).
# The list shows a part of the results. Many values rest on one well or one pass, so single values are uncertain.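 Cells were imaged in 1,536-well plates, and nuclei stained with an antibody against cleaved PARP were counted against all DNA-stained nuclei to give the apoptosis fraction. Screening doses were chosen to leave most cells alive, and resting and induced cleaved-PARP levels differ strongly between cell lines.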
# System: MZ2-MEL
# Assay: cleaved PARP positive nuclei fraction relative to DMSO control; melanoma cells; higher = more apoptosis
# Conditions: library dose: low library concentration; 72 h
row,Compound,cleaved PARP positive nuclei fraction [%]
1,"CC(C)C[C@H](NC(=O)[C@H](Cc1ccccc1)NC(=O)c1cnccn1)B(O)O [Bortezomib] + COc1cc2ncnc(Nc3ccc(Oc4ccccc4)cc3)c2cc1OC [SrcI1] (first compound 0.001 µM, partner dose 2 µM)",277
2,"CC(C)C[C@H](NC(=O)[C@H](Cc1ccccc1)NC(=O)c1cnccn1)B(O)O [Bortezomib] + C[C@@H]1CCN(C(=O)CC#N)C[C@@H]1N(C)c1ncnc2[nH]ccc12 [CP690550] (first compound 0.001 µM, partner dose 1 µM)",172
3,"CNC(=O)c1cc(Oc2ccc(NC(=O)Nc3ccc(Cl)c(C(F)(F)F)c3)cc2)ccn1 [sorafenib] + c1cc(-c2cnn3cc(-c4ccc(OCCN5CCCCC5)cc4)cnc23)ccn1 [Dorsomorphin] (first compound 0.4 µM, partner dose 0.4 µM)",89.5
4,"O=C(O)c1ccc2c(c1)nc(Nc1cccc(Cl)c1)c1ccncc12 + O=C(Nc1cccc(Cl)c1)Nc1ncc(CCNc2ncnc3ccsc23)s1 [SNS314] (first compound 0.4 µM, partner dose 0.0008 µM)",94.4
5,"CCCS(=O)(=O)Nc1ccc(F)c(C(=O)c2c[nH]c3ncc(Cl)cc23)c1F + CCc1ccc(CCOc2ccc(CC3SC(=O)NC3=O)cc2)nc1 [pioglitazone] (first compound 0.08 µM, partner dose 2 µM)",70.2
6,"O=C(O)c1ccc2c(c1)nc(Nc1cccc(Cl)c1)c1ccncc12 + CC(C)(C)c1cnc(CSc2cnc(NC(=O)C3CCNCC3)s2)o1 [SNS-032] (first compound 0.4 µM, partner dose 0.01 µM)",221
7,"CN1CCN(c2ccc3nc(-c4c(N)c5c(F)cccc5[nH]c4=O)[nH]c3c2)CC1 [Dovitinib] + NC(=O)Nc1cc(-c2cccc(F)c2)sc1C(=O)N[C@H]1CCCNC1 [AZD7762] (first compound 0.1 µM, partner dose 0.02 µM)",73.9
8,"O=C(O)[C@@H]1[O][Sb](=[O])([O][Sb]2(=[O])[O][C@H]([C@H](O)CO)[C@H](O)[C@H](C(=O)O)[O]2)[O][C@H]([C@H](O)CO)[C@@H]1O (stereo partly specified) [stibogluconate] + OCCn1cc(-c2cnc3nnn(Cc4ccc5ncccc5c4)c3n2)cn1 [PF04217903] (first compound 2 µM, partner dose 1 µM)",60.5
9,"CS(=O)(=O)CCNCc1ccc(-c2ccc3ncnc(Nc4ccc(OCc5cccc(F)c5)c(Cl)c4)c3c2)o1 [lapatinib] + COc1ccc(COc2ccc(Cc3cnc(N)nc3N)cc2OC)cc1 [GW2580] (first compound 0.8 µM, partner dose 1 µM)",136

# System: MeWo
# Assay: as above
# Conditions: library dose: low library concentration; 72 h
row,Compound,cleaved PARP positive nuclei fraction [%]
1,"C=C(c1ccc(C(=O)O)cc1)c1cc2c(cc1C)C(C)(C)CCC2(C)C [Bexarotene] + CC(C)(C)c1cnc(CSc2cnc(NC(=O)C3CCNCC3)s2)o1 [SNS-032] (first compound 2 µM, partner dose 0.01 µM)",108
2,"Cc1cc(Nc2cc(N3CCN(C)CC3)nc(/C=C/c3ccccc3)n2)n[nH]1 + COc1cc(N2CCC(N3CCN(C)CC3)CC2)ccc1Nc1ncc(Cl)c(Nc2ccccc2S(=O)(=O)C(C)C)n1 [NVP-TAE684] (first compound 0.04 µM, partner dose 0.08 µM)",73.5
3,"O=C(O)c1ccc2c(c1)nc(Nc1cccc(Cl)c1)c1ccncc12 + Oc1nc(-c2ccc(C(F)(F)F)cc2)nc2c1CSCC2 [XAV939] (first compound 0.4 µM, partner dose 2 µM)",158
4,"Nc1ccn([C@@H]2O[C@H](CO)[C@@H](O)C2(F)F)c(=O)n1 [gemcitabine] + COC(=O)c1sccc1S(=O)(=O)Nc1ccc(Nc2ccccc2)cc1OC [GSK0660] (first compound 0.0004 µM, partner dose 1 µM)",131
5,"CNC(=O)c1cc(Oc2ccc(NC(=O)Nc3ccc(Cl)c(C(F)(F)F)c3)cc2)ccn1 [sorafenib] + CC(C)(C)c1cnc(CSc2cnc(NC(=O)C3CCNCC3)s2)o1 [SNS-032] (first compound 0.4 µM, partner dose 0.01 µM)",69.9
6,"Nc1ccn([C@@H]2O[C@H](CO)[C@@H](O)C2(F)F)c(=O)n1 [gemcitabine] + OCCn1cc(-c2cnc3nnn(Cc4ccc5ncccc5c4)c3n2)cn1 [PF04217903] (first compound 0.0004 µM, partner dose 1 µM)",101
7,"C=C(c1ccc(C(=O)O)cc1)c1cc2c(cc1C)C(C)(C)CCC2(C)C [Bexarotene] + Cc1ccc(NC(=O)c2cccc(N(C)C)c2)cc1NC(=O)c1ccc(O)cc1 [ZM336372] (first compound 2 µM, partner dose 2 µM)",110
8,"Nc1nc(F)nc2c1ncn2[C@@H]1O[C@H](CO)[C@@H](O)[C@@H]1O [fludarabine] + C=CCn1c(=O)c2cnc(Nc3ccc(N4CCN(C)CC4)cc3)nc2n1-c1cccc(C(C)(C)O)n1 [MK1775] (first compound 0.2 µM, partner dose 0.02 µM)",1510
9,"Cc1cc(Nc2cc(N3CCN(C)CC3)nc(/C=C/c3ccccc3)n2)n[nH]1 + Cn1cc(/C=C2\C(=O)Nc3cccnc32)c2ccccc21 [GW441756] (first compound 0.04 µM, partner dose 0.4 µM)",144
10,"CC(C)C[C@H](NC(=O)[C@H](Cc1ccccc1)NC(=O)c1cnccn1)B(O)O [Bortezomib] + c1cc(-c2cnn3cc(-c4ccc(OCCN5CCCCC5)cc4)cnc23)ccn1 [Dorsomorphin] (first compound 0.001 µM, partner dose 0.4 µM)",184
11,"Nc1ncn([C@H]2C[C@H](O)[C@@H](CO)O2)c(=O)n1 [decitabine] + Cc1cc([N+](=O)[O-])ccc1NS(=O)(=O)c1cc(Cl)ccc1Cl [FH535] (first compound 0.1 µM, partner dose 1 µM)",70.1
12,"Nc1ncn([C@H]2C[C@H](O)[C@@H](CO)O2)c(=O)n1 [decitabine] + O=C(Nc1cccc(Cl)c1)Nc1ncc(CCNc2ncnc3ccsc23)s1 [SNS314] (first compound 0.1 µM, partner dose 0.0008 µM)",56
13,"CS(=O)(=O)CCNCc1ccc(-c2ccc3ncnc(Nc4ccc(OCc5cccc(F)c5)c(Cl)c4)c3c2)o1 [lapatinib] + COc1ccc2c(c1)CCC1C2CCC2(C)C(NCCCCCCN3C(=O)C=CC3=O)CCC12 [U73122] (first compound 0.8 µM, partner dose 0.4 µM)",71.1
14,"Cc1cc(Nc2cc(N3CCN(C)CC3)nc(/C=C/c3ccccc3)n2)n[nH]1 + CCCCCCCCCCCC1=C(O)C(=O)C=C(O)C1=O [Embelin] (first compound 0.04 µM, partner dose 1.2 µM)",117
15,"C[C@@H](Oc1cc(-c2cnn(C3CCNCC3)c2)cnc1N)c1c(Cl)ccc(F)c1Cl [Crizotinib] + Cc1cc([N+](=O)[O-])ccc1NS(=O)(=O)c1cc(Cl)ccc1Cl [FH535] (first compound 0.2 µM, partner dose 1 µM)",75.3
16,"Nc1ccn([C@@H]2O[C@H](CO)[C@@H](O)C2(F)F)c(=O)n1 [gemcitabine] + O=C(Nc1cccc(Cl)c1)Nc1ncc(CCNc2ncnc3ccsc23)s1 [SNS314] (first compound 0.0004 µM, partner dose 0.0008 µM)",111
17,"O=C(O)[C@@H]1[O][Sb](=[O])([O][Sb]2(=[O])[O][C@H]([C@H](O)CO)[C@H](O)[C@H](C(=O)O)[O]2)[O][C@H]([C@H](O)CO)[C@@H]1O (stereo partly specified) [stibogluconate] + CC(C)CCN1c2nc(Nc3cc(F)c(O)c(F)c3)ncc2N(C)C(=O)C1C [BID1870] (first compound 2 µM, partner dose 0.2 µM)",190
18,"C=C(c1ccc(C(=O)O)cc1)c1cc2c(cc1C)C(C)(C)CCC2(C)C [Bexarotene] + COc1ccc2c(c1)CCC1C2CCC2(C)C(NCCCCCCN3C(=O)C=CC3=O)CCC12 [U73122] (first compound 2 µM, partner dose 0.4 µM)",128
19,"C=C(c1ccc(C(=O)O)cc1)c1cc2c(cc1C)C(C)(C)CCC2(C)C [Bexarotene] + Oc1nc(-c2ccc(C(F)(F)F)cc2)nc2c1CSCC2 [XAV939] (first compound 2 µM, partner dose 2 µM)",45.3
20,"CS(=O)(=O)CCNCc1ccc(-c2ccc3ncnc(Nc4ccc(OCc5cccc(F)c5)c(Cl)c4)c3c2)o1 [lapatinib] + NC(=O)Nc1cc(-c2cccc(F)c2)sc1C(=O)N[C@H]1CCCNC1 [AZD7762] (first compound 0.8 µM, partner dose 0.02 µM)",64.8
21,"O=C(O)[C@@H]1[O][Sb](=[O])([O][Sb]2(=[O])[O][C@H]([C@H](O)CO)[C@H](O)[C@H](C(=O)O)[O]2)[O][C@H]([C@H](O)CO)[C@@H]1O (stereo partly specified) [stibogluconate] + CN(NC(=O)CC(=O)NN(C)C(=S)c1ccccc1)C(=S)c1ccccc1 [STA4783] (first compound 2 µM, partner dose 0.006 µM)",128
22,"CCCS(=O)(=O)Nc1ccc(F)c(C(=O)c2c[nH]c3ncc(Cl)cc23)c1F + COc1ccc(COc2ccc(Cc3cnc(N)nc3N)cc2OC)cc1 [GW2580] (first compound 0.08 µM, partner dose 1 µM)",66.1

# Quoted at random: two records from the list, in no set order.
row,Compound,cleaved PARP positive nuclei fraction [%]
20,"CS(=O)(=O)CCNCc1ccc(-c2ccc3ncnc(Nc4ccc(OCc5cccc(F)c5)c(Cl)c4)c3c2)o1 [lapatinib] + NC(=O)Nc1cc(-c2cccc(F)c2)sc1C(=O)N[C@H]1CCCNC1 [AZD7762] (first compound 0.8 µM, partner dose 0.02 µM)",64.8
14,"Cc1cc(Nc2cc(N3CCN(C)CC3)nc(/C=C/c3ccccc3)n2)n[nH]1 + CCCCCCCCCCCC1=C(O)C(=O)C=C(O)C1=O [Embelin] (first compound 0.04 µM, partner dose 1.2 µM)",117
